{
  "sequences": {"note": "The chains behind the UniProt entries cited, without tags or fusion partners. Residues count along the entry.", "UniProt Q86WV6": "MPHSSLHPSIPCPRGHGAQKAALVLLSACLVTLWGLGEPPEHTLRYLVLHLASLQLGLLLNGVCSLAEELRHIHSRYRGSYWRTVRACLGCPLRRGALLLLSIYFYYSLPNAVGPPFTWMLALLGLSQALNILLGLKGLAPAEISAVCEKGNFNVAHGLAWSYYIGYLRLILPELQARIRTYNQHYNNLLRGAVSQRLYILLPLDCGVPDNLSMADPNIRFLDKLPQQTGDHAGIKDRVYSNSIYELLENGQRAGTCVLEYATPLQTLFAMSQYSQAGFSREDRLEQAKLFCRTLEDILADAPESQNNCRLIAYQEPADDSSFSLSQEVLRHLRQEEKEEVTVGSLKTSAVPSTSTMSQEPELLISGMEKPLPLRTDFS", "UniProt P03186, residues 1-325": "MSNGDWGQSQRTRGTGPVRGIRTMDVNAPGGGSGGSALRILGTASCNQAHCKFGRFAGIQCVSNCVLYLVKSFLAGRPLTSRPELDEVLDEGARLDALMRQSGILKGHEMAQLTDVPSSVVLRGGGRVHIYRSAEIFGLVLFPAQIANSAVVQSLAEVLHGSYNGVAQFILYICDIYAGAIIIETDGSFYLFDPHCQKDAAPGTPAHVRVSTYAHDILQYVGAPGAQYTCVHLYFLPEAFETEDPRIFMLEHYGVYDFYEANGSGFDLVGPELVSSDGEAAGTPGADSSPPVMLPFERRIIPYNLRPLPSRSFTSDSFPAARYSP"},
  "source": "paper PMC9983872",
  "key": {"Flag-tagged TBK1": {"target": "T1, Flag-tagged TBK1 (UniProt Q9UHD2)", "T1 sequence": "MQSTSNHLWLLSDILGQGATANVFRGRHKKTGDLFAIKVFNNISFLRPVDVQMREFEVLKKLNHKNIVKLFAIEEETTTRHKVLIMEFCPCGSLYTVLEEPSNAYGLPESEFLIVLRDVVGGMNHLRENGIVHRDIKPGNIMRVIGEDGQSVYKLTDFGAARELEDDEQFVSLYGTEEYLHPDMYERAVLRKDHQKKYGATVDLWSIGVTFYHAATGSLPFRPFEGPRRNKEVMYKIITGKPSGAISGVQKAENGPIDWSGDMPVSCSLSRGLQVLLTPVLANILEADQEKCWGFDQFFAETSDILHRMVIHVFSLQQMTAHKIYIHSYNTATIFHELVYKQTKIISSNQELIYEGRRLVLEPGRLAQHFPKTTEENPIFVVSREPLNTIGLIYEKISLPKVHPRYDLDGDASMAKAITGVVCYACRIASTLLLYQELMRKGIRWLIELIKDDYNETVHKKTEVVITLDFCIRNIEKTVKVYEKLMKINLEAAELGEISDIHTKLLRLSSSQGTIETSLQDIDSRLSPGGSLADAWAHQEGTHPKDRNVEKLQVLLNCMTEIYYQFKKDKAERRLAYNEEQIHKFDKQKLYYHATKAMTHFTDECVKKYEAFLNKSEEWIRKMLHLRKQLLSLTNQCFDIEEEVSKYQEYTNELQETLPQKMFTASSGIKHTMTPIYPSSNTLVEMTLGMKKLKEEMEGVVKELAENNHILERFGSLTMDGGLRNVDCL", "assay": "co-IP; Myc-BPLF1 co-expressed with Flag-STING or Flag-TBK1 in HEK293T cells, harvested 24 h after transfection; lysis and washes in RIPA buffer; Flag-tagged protein precipitated with anti-Flag antibody on Dynabeads, blot with anti-Myc"}, "Flag-tagged STING": {"target": "Flag-tagged STING (UniProt Q86WV6)", "assay": "co-IP; Myc-BPLF1 co-expressed with Flag-STING or Flag-TBK1 in HEK293T cells, harvested 24 h after transfection; lysis and washes in RIPA buffer; Flag-tagged protein precipitated with anti-Flag antibody on Dynabeads, blot with anti-Myc"}, "[1]": {"target": "Myc-tagged BPLF1 325 (first 325 amino acids of EBV large tegument protein BPLF1) (Epstein-Barr virus) (UniProt P03186)", "assay": "co-IP; reciprocal: Myc-BPLF1 and Flag-STING co-expressed in HEK293T cells; Myc-tagged BPLF1 precipitated, blot with anti-Flag; RIPA buffer"}},
  "note": "No constants are given. Whether binding was seen depends on the method and setting. In cells and extracts the contact can be indirect. Some binding calls cover weakened binding; strength is not graded here. For part of these data: Where a sequence is shown, tags or fusion partners need not be part of it.",
  "data": [
    {"substance": "Myc-tagged BPLF1 325 (first 325 amino acids of EBV large tegument protein BPLF1) (from UniProt P03186 1-325) (domain or fragment)", "values": [
      {"measurement": "binding", "setting": "Flag-tagged TBK1", "result": "no binding"},
      {"measurement": "binding", "setting": "Flag-tagged STING", "result": "binds"}
    ]},
    {"substance": "Flag-tagged STING (from UniProt Q86WV6 1-379)", "values": [
      {"measurement": "binding", "setting": "[1]", "result": "binds"}
    ]}
  ]
}
